Construct, isoform or probe ends are uncertain for at least one entry. For part of these data: At least one verdict rests on a figure or table, not on a statement of the authors.
How the values were obtained:
[1] = tested on: SmD1 + SmD2 + SmG + SmE + SmF + SmD3 + SmB1-95; assay: size exclusion chromatography, SDS-PAGE; details: complex purified at 4 °C, recombinant protein
[2] = tested on: SmD1 + SmD2-EGF + SmG + SmE + SmF + SmD3 + SmB1-95-H5E; assay: size exclusion chromatography, SDS-PAGE; details: complex purified at 4 °C, recombinant protein
[3] = tested on: SmD1 + SmD2-EGF + SmG + SmE + SmF + SmD3 + SmB1-95; assay: size exclusion chromatography, SDS-PAGE; details: complex purified at 4 °C, recombinant protein
[4] = tested on: SmD1 + SmD2-EGF + SmG + SmE + SmF + SmD3 + SmB1-95-H5E; assay: nuclease protection, Urea-PAGE; details: mouse serum, up to 18 h; complex purified at 4 °C; recombinant protein
[5] = tested on: SmD1 + SmD2-VEGF-A + SmG + SmE + SmF + SmD3 + SmB1-95-H5E; assay: in vitro reconstitution; details: SmiRNP-VEGF-A-H5E; complex purified at 4 °C; recombinant protein
[6] = tested on: SmD1 + SmD2-FGF1 + SmG + SmE + SmF + SmD3 + SmB1-95-H5E; assay: in vitro reconstitution; details: SmiRNP-FGF1-H5E; complex purified at 4 °C; recombinant protein
[7] = tested on: SmD1 + SmD2-EGF + SmG + SmE + SmF + SmD3 + SmB1-95-H5E; assay: size exclusion chromatography with SDS-PAGE and Urea-PAGE; details: SmiRNP-EGF-H5E; complex purified at 4 °C; recombinant protein

Measured: binding result

CAAUUUUUGAUCUGAAUUAGCUGUAUCGUCAAGGUU / CCUUGACGAUACAGCUAAUUCAGA [Cy5.5-siKRAS]
binds: [1]; Cy5.5-SmiRNP, label: 5'-Cy5.5 on antisense | [2]; Cy5.5-SmiRNP-EGF-H5E, label: 5'-Cy5.5 on antisense

CAAUUUUUGAUUAAUAGGUAGUGGCAUACGCUUCUU / GAAGCGUAUGCCACUACCUAUUAA [siNC]
binds: [2]; SmiRNP-EGF-H5E siNC

CAAUUUUUGAUCUGAAUUAGCUGUAUCGUCAAGGUU / CCUUGACGAUACAGCUAAUUCAGA [FAM-siKRAS]
binds: [1]; FAM-SmiRNP, label: 5'-FAM on antisense | [3]; FAM-SmiRNP-EGF, label: 5'-FAM on antisense | [2]; FAM-SmiRNP-EGF-H5E, label: 5'-FAM on antisense

CAAUUUUUGAUCUGAAUUAGCUGUAUCGUCAAGGUU / CCUUGACGAUACAGCUAAUUCAGA [siKRAS]
binds: [4] | [1]; SmiRNP | [3]; SmiRNP-EGF | [5] | [6] | [7]
